# Experimental data reported in the supplement of paper PMC8728848.
# This is one part of the list.
# Key:
# Assay in all cases: glycan array binding signal (z-score within array); higher = stronger binding
# Conditions in all cases: glycan notation: IUPAC condensed, linker removed
# [1] = target: GlcNAc(a1-6)Gal(b1-4)GlcNAc
# How it was run: (§1)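 Columns mapping to the same glycan were averaged after glycan names were converted to IUPAC-condensed notation. The data come from 3228 arrays in the Consortium for Functional Glycomics database, limited to those with an available protein sequence. Binding is reported as a within-array Z-score averaged across arrays of one protein sequence and across linkers.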
# [2] = target: GlcNAc(b1-2)Gal(b1-3)GalNAc
# How it was run: as §1
# [3] = target: GlcNAc(b1-2)Man(a1-3)[GlcNAc(b1-2)Man(a1-6)]Man(b1-4)GlcNAc(b1-4)GlcNAc
# How it was run: as §1
# [4] = target: GlcNAc(b1-2)Man(a1-3)[GlcNAc(b1-2)Man(a1-6)]Man(b1-4)GlcNAc(b1-4)[Fuc(a1-6)]GlcNAc
# How it was run: as §1
# [5] = target: GlcNAc(b1-2)Man(a1-3)[GlcNAc(b1-4)][GlcNAc(b1-2)Man(a1-6)]Man(b1-4)GlcNAc(b1-4)GlcNAc
# How it was run: as §1
# [6] = target: GlcNAc(b1-2)Man(a1-3)[GlcNAc(b1-4)][GlcNAc(b1-2)Man(a1-6)]Man(b1-4)GlcNAc(b1-4)[Fuc(a1-6)]GlcNAc
# How it was run: as §1
# [7] = target: GlcNAc(b1-2)[GlcNAc(b1-4)]Man(a1-3)[GlcNAc(b1-2)Man(a1-6)]Man(b1-4)GlcNAc(b1-4)GlcNAc
# How it was run: as §1
# [8] = target: GlcNAc(b1-2)[GlcNAc(b1-4)]Man(a1-3)[GlcNAc(b1-4)][GlcNAc(b1-2)Man(a1-6)]Man(b1-4)GlcNAc(b1-4)GlcNAc
# How it was run: as §1
# [9] = target: GlcNAc(b1-2)[GlcNAc(b1-4)]Man(a1-3)[GlcNAc(b1-4)][GlcNAc(b1-2)[GlcNAc(b1-6)]Man(a1-6)]Man(b1-4)GlcNAc(b1-4)GlcNAc
# How it was run: as §1
# [10] = target: GlcNAc(b1-2)[GlcNAc(b1-4)]Man(a1-3)[GlcNAc(b1-4)][GlcNAc(b1-2)[GlcNAc(b1-6)]Man(a1-6)]Man(b1-4)GlcNAc(b1-4)[Fuc(a1-6)]GlcNAc
# How it was run: as §1
# [11] = target: GlcNAc(b1-2)[GlcNAc(b1-6)]Man(a1-6)[GlcNAc(b1-2)Man(a1-3)]Man(b1-4)GlcNAc(b1-4)GlcNAc
# How it was run: as §1
# [12] = target: GlcNAc(b1-2)[GlcNAc(b1-6)]Man(a1-6)[GlcNAc(b1-2)Man(a1-3)]Man(b1-4)GlcNAc(b1-4)[Fuc(a1-6)]GlcNAc
# How it was run: as §1
# [13] = target: GlcNAc(b1-2)[GlcNAc(b1-6)]Man(a1-6)[GlcNAc(b1-4)][GlcNAc(b1-2)Man(a1-3)]Man(b1-4)GlcNAc(b1-4)GlcNAc
# How it was run: as §1
# GlcNAc(b1-3)Fuc = target: GlcNAc(b1-3)Fuc
# How it was run: as §1
# GlcNAc(b1-3)Gal = target: GlcNAc(b1-3)Gal
# How it was run: as §1
# [14] = target: GlcNAc(b1-3)Gal(b1-3)GalNAc
# How it was run: as §1
# GlcNAc(b1-3)Gal(b1-4)Glc = target: GlcNAc(b1-3)Gal(b1-4)Glc
# How it was run: as §1
# [15] = target: GlcNAc(b1-3)Gal(b1-4)GlcNAc
# How it was run: as §1
# [16] = target: GlcNAc(b1-3)Gal(b1-4)GlcNAc(b1-2)Man(a1-3)[GlcNAc(b1-3)Gal(b1-4)GlcNAc(b1-2)Man(a1-6)]Man(b1-4)GlcNAc(b1-4)GlcNAc
# How it was run: as §1
# [17] = target: GlcNAc(b1-3)Gal(b1-4)GlcNAc(b1-2)Man(a1-3)[GlcNAc(b1-3)Gal(b1-4)GlcNAc(b1-2)Man(a1-6)]Man(b1-4)GlcNAc(b1-4)[Fuc(a1-6)]GlcNAc
# How it was run: as §1
# [18] = target: GlcNAc(b1-3)Gal(b1-4)GlcNAc(b1-2)[GlcNAc(b1-3)Gal(b1-4)GlcNAc(b1-6)]Man(a1-6)[GlcNAc(b1-3)Gal(b1-4)GlcNAc(b1-2)Man(a1-3)]Man(b1-4)GlcNAc(b1-4)GlcNAc
# How it was run: as §1
# [19] = target: GlcNAc(b1-3)Gal(b1-4)GlcNAc(b1-3)Gal(b1-4)GlcNAc
# How it was run: as §1
binder,measurement,setting,value
"Ovorubin (Pomacea canaliculata), J7I2T6 (protein) MFVATSLLLAIATLVVRASPHNYLIMDIEPPKSVSERDILNLLSPLQVKHSFRVTGSTRLLIVIRLDAQSYEKLDEITVPGKVEVIPAVNMADTMERCGVSWPRVELTDDNVTLFESESTLTDVTKEQLKAMLIGYGEHMSGLLQAHRFEYYQAAGATPHRHFVFVNSVPDEIEVFGREGVDIWGGPGEFVVKPQYVTRI",glycan array binding signal (z-score),[1],-0.021
same,glycan array binding signal (z-score),[2],-0.27
same,glycan array binding signal (z-score),[3],-0.394
same,glycan array binding signal (z-score),[4],-0.475
same,glycan array binding signal (z-score),[5],0.341
same,glycan array binding signal (z-score),[6],-0.306
same,glycan array binding signal (z-score),[7],-0.409
same,glycan array binding signal (z-score),[8],-0.909
same,glycan array binding signal (z-score),[9],-0.864
same,glycan array binding signal (z-score),[10],-0.233
same,glycan array binding signal (z-score),[11],0.175
same,glycan array binding signal (z-score),[12],0.695
same,glycan array binding signal (z-score),[13],-0.795
same,glycan array binding signal (z-score),GlcNAc(b1-3)Fuc,-0.308
same,glycan array binding signal (z-score),GlcNAc(b1-3)Gal,-0.617
same,glycan array binding signal (z-score),[14],0.167
same,glycan array binding signal (z-score),GlcNAc(b1-3)Gal(b1-4)Glc,0.458
same,glycan array binding signal (z-score),[15],-0.34
same,glycan array binding signal (z-score),[16],-0.39
same,glycan array binding signal (z-score),[17],0.415
same,glycan array binding signal (z-score),[18],0.637
same,glycan array binding signal (z-score),[19],-0.391

# Another view of part of the listing above:
binder | measurement | setting | value
Ovorubin (Pomacea canaliculata), J7I2T6 (protein) MFVATSLLLAIATLVVRASPHNYLIMDIEPPKSVSERDILNLLSPLQVKHSFRVTGSTRLLIVIRLDAQSYEKLDEITVPGKVEVIPAVNMADTMERCGVSWPRVELTDDNVTLFESESTLTDVTKEQLKAMLIGYGEHMSGLLQAHRFEYYQAAGATPHRHFVFVNSVPDEIEVFGREGVDIWGGPGEFVVKPQYVTRI | glycan array binding signal (z-score) | [4] | -0.475
same | glycan array binding signal (z-score) | GlcNAc(b1-3)Gal(b1-4)Glc | 0.458
